Data on 36 compounds can be found in the supplement of paper PMC5355238.

Molecules are shown by their SMILES. Counter-ions that a name gives are not always drawn. This is one part of the list. Most entries show no effect beyond the scatter of the controls.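 Using flow cytometry, the assay measures the median γH2AX antibody signal in S-phase Reh cells (a human leukemia line). Each score is the number of standard deviations from the median difference of paired plate sets. Candidate hits scored above 2.5; compounds scoring below -2 lowered MK1775-induced damage.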

The experiment has as its system Reh. Put plainly: Z' of S-phase gammaH2AX difference (drug + MK1775 minus drug alone) (Z-score); higher = stronger synergistic S-phase DNA damage with MK1775. To be noted: MK1775 concentration 400 nM; first compound 10 µM; 4 h.
As to `CC1(CN2CCC(n3c(=O)[nH]c4ccccc43)CC2)OCc2ccccc2-n2cccc21` (stereo unspecified) + C=CCn1c(=O)c2cnc(Nc3ccc(N4CCN(C)CC4)cc3)nc2n1-c1cccc(C(C)(C)O)n1 [MK1775], the “Z' of S-phase gammaH2AX difference (Z-score)” value was inactive: 0.455.

In the case of `CC[N+](CC)(CC)CC` [Tetraethylammonium chloride] + C=CCn1c(=O)c2cnc(Nc3ccc(N4CCN(C)CC4)cc3)nc2n1-c1cccc(C(C)(C)O)n1 [MK1775], the “Z' of S-phase gammaH2AX difference (Z-score)” value is inactive: 0.759. For the compound `Cc1cccc(-c2[nH]c(C(C)(C)C)nc2-c2ccc3nccnc3c2)n1` + C=CCn1c(=O)c2cnc(Nc3ccc(N4CCN(C)CC4)cc3)nc2n1-c1cccc(C(C)(C)O)n1 [MK1775], the “Z' of S-phase gammaH2AX difference (Z-score)” value is inactive: -0.0214. With `N=c1ccn2c(n1)O[C@H]1[C@H](O)[C@@H](CO)O[C@H]12` [Ancitabine hydrochloride] + C=CCn1c(=O)c2cnc(Nc3ccc(N4CCN(C)CC4)cc3)nc2n1-c1cccc(C(C)(C)O)n1 [MK1775] the figure was inactive: 1.91; with `C[N+](C)(C)CCO.[Br-]` [Choline bromide] + C=CCn1c(=O)c2cnc(Nc3ccc(N4CCN(C)CC4)cc3)nc2n1-c1cccc(C(C)(C)O)n1 [MK1775], inactive: 0.15; with `O=c1[nH]cc(F)c(=O)[nH]1` [5-Fluorouracil] + C=CCn1c(=O)c2cnc(Nc3ccc(N4CCN(C)CC4)cc3)nc2n1-c1cccc(C(C)(C)O)n1 [MK1775], inactive: -1.38. For `O=c1[nH]cc(F)c(=O)[nH]1` [Adrucil (Fluorouracil)] + C=CCn1c(=O)c2cnc(Nc3ccc(N4CCN(C)CC4)cc3)nc2n1-c1cccc(C(C)(C)O)n1 [MK1775] the value was inactive: -0.00222. On to `CC(C)Cc1ccc([C@H](C)C(=O)O)cc1` [S(+)-Ibuprofen] + C=CCn1c(=O)c2cnc(Nc3ccc(N4CCN(C)CC4)cc3)nc2n1-c1cccc(C(C)(C)O)n1 [MK1775], for which the “Z' of S-phase gammaH2AX difference (Z-score)” value is inactive: 1.13. Regarding `O=C(O)Cc1ccccc1Nc1c(Cl)cccc1Cl` [Diclofenac sodium] + C=CCn1c(=O)c2cnc(Nc3ccc(N4CCN(C)CC4)cc3)nc2n1-c1cccc(C(C)(C)O)n1 [MK1775], the “Z' of S-phase gammaH2AX difference (Z-score)” value was inactive: -0.109. As for `COC(=O)C1=C(C)NC(C)=C(C(=O)OC)C1c1ccccc1[N+](=O)[O-]` [Nifedipine] + C=CCn1c(=O)c2cnc(Nc3ccc(N4CCN(C)CC4)cc3)nc2n1-c1cccc(C(C)(C)O)n1 [MK1775], the “Z' of S-phase gammaH2AX difference (Z-score)” value was inactive: -0.0485. In the case of `CNC(=O)[C@H]1O[C@@H](n2cnc3c(NCc4ccc(N)cc4)ncnc32)[C@H](O)[C@@H]1O` + C=CCn1c(=O)c2cnc(Nc3ccc(N4CCN(C)CC4)cc3)nc2n1-c1cccc(C(C)(C)O)n1 [MK1775], the “Z' of S-phase gammaH2AX difference (Z-score)” value is inactive: -0.548. `COc1cc2c(cc1O)CC[C@@H]1[C@@H]2CC[C@]2(C)[C@@H](O)CC[C@@H]12` [2-methoxyestradiol] + C=CCn1c(=O)c2cnc(Nc3ccc(N4CCN(C)CC4)cc3)nc2n1-c1cccc(C(C)(C)O)n1 [MK1775]: the “Z' of S-phase gammaH2AX difference (Z-score)” value is inactive: -0.893.

Regarding `COc1cc2c(cc1O)CC[C@@H]1[C@@H]2CC[C@]2(C)[C@@H](O)CC[C@@H]12` [2-Methoxyestradiol] + C=CCn1c(=O)c2cnc(Nc3ccc(N4CCN(C)CC4)cc3)nc2n1-c1cccc(C(C)(C)O)n1 [MK1775], the “Z' of S-phase gammaH2AX difference (Z-score)” value was inactive: 0.0407. Take `CN(C)CCCN1c2ccccc2CCc2ccc(Cl)cc21` [Clomipramine hydrochloride] + C=CCn1c(=O)c2cnc(Nc3ccc(N4CCN(C)CC4)cc3)nc2n1-c1cccc(C(C)(C)O)n1 [MK1775]: the “Z' of S-phase gammaH2AX difference (Z-score)” value is inactive: -0.351. As for `CC(C)[C@H](C(=O)Nc1ccc(C(=O)NO)cc1)c1ccccc1` + C=CCn1c(=O)c2cnc(Nc3ccc(N4CCN(C)CC4)cc3)nc2n1-c1cccc(C(C)(C)O)n1 [MK1775], the “Z' of S-phase gammaH2AX difference (Z-score)” value is inactive: -0.125. For `NC(=O)c1ccc2nc(-c3ccc(Oc4ccc(Cl)cc4)cc3)[nH]c2c1` + C=CCn1c(=O)c2cnc(Nc3ccc(N4CCN(C)CC4)cc3)nc2n1-c1cccc(C(C)(C)O)n1 [MK1775] the value was inactive: 0.088; for `COc1cc2c(CCNC(C)=O)c[nH]c2cc1O` [6-Hydroxymelatonin] + C=CCn1c(=O)c2cnc(Nc3ccc(N4CCN(C)CC4)cc3)nc2n1-c1cccc(C(C)(C)O)n1 [MK1775], inactive: 0.391; for `Cc1ccc(S(=O)(=O)C=CC#N)cc1` + C=CCn1c(=O)c2cnc(Nc3ccc(N4CCN(C)CC4)cc3)nc2n1-c1cccc(C(C)(C)O)n1 [MK1775], inactive: -1.1. Consider `Cc1ccc(N(CC2=NCCN2)c2cccc(O)c2)cc1` [Phentolamine mesylate] + C=CCn1c(=O)c2cnc(Nc3ccc(N4CCN(C)CC4)cc3)nc2n1-c1cccc(C(C)(C)O)n1 [MK1775], for which the “Z' of S-phase gammaH2AX difference (Z-score)” value is inactive: -0.83. On to `CNC(=O)[C@H]1O[C@@H](n2cnc3c(N)ncnc32)[C@H](O)[C@@H]1O` [5'-N-Methyl carboxamidoadenosine] + C=CCn1c(=O)c2cnc(Nc3ccc(N4CCN(C)CC4)cc3)nc2n1-c1cccc(C(C)(C)O)n1 [MK1775], for which the “Z' of S-phase gammaH2AX difference (Z-score)” value is inactive: -0.354. With `CCCCCCCCCCCCCCCC(=O)NCC(COP(=O)([O-])OCC[N+](C)(C)C)OCC` (racemic) [rac-2-Ethoxy-3-hexadecanamido-1-propylphosphocholine] + C=CCn1c(=O)c2cnc(Nc3ccc(N4CCN(C)CC4)cc3)nc2n1-c1cccc(C(C)(C)O)n1 [MK1775] the figure was inactive: -0.391.

Turning to `CCc1ccc(CCOc2ccc(CC3SC(=O)NC3=O)cc2)nc1` (stereo unspecified) [Pioglitazone (Actos)] + C=CCn1c(=O)c2cnc(Nc3ccc(N4CCN(C)CC4)cc3)nc2n1-c1cccc(C(C)(C)O)n1 [MK1775], the “Z' of S-phase gammaH2AX difference (Z-score)” value is inactive: 0.0554. `O=C(CCCCCCC(=O)Nc1cccnc1)NO` [Pyroxamide] + C=CCn1c(=O)c2cnc(Nc3ccc(N4CCN(C)CC4)cc3)nc2n1-c1cccc(C(C)(C)O)n1 [MK1775]: the “Z' of S-phase gammaH2AX difference (Z-score)” value was inactive: 0.169. In the case of `CC(C(=O)O)c1ccc(CC2CCCC2=O)cc1` (stereo unspecified) [loxoprofen] + C=CCn1c(=O)c2cnc(Nc3ccc(N4CCN(C)CC4)cc3)nc2n1-c1cccc(C(C)(C)O)n1 [MK1775], the “Z' of S-phase gammaH2AX difference (Z-score)” value is inactive: -1.04. On to `NCCCCC(=O)O` [5-Aminovaleric acid hydrochloride] + C=CCn1c(=O)c2cnc(Nc3ccc(N4CCN(C)CC4)cc3)nc2n1-c1cccc(C(C)(C)O)n1 [MK1775], for which the “Z' of S-phase gammaH2AX difference (Z-score)” value is inactive: 0.0768. As for `OCCN1CCN(CCCN2c3ccccc3Sc3ccc(C(F)(F)F)cc32)CC1` [Fluphenazine dihydrochloride] + C=CCn1c(=O)c2cnc(Nc3ccc(N4CCN(C)CC4)cc3)nc2n1-c1cccc(C(C)(C)O)n1 [MK1775], the “Z' of S-phase gammaH2AX difference (Z-score)” value was inactive: -0.955. For `O=C(c1cc(Cc2n[nH]c(=O)c3ccccc23)ccc1F)N1CCN(C(=O)C2CC2)CC1` [Olaparib (AZD2281)] + C=CCn1c(=O)c2cnc(Nc3ccc(N4CCN(C)CC4)cc3)nc2n1-c1cccc(C(C)(C)O)n1 [MK1775] the value was inactive: 0.014. Regarding `Clc1ccc2c(c1)C(N1CCNCC1)=Nc1ccccc1O2` [Amoxapine] + C=CCn1c(=O)c2cnc(Nc3ccc(N4CCN(C)CC4)cc3)nc2n1-c1cccc(C(C)(C)O)n1 [MK1775], the “Z' of S-phase gammaH2AX difference (Z-score)” value was inactive: -0.127. Consider `O=C(O)CCc1nc(-c2ccccc2)c(-c2ccccc2)o1` [Oxaprozin] + C=CCn1c(=O)c2cnc(Nc3ccc(N4CCN(C)CC4)cc3)nc2n1-c1cccc(C(C)(C)O)n1 [MK1775], for which the “Z' of S-phase gammaH2AX difference (Z-score)” value was inactive: -0.0825. Turning to `O=C(OCCN1CCOCC1)C1(c2ccccc2)CCCCC1` + C=CCn1c(=O)c2cnc(Nc3ccc(N4CCN(C)CC4)cc3)nc2n1-c1cccc(C(C)(C)O)n1 [MK1775], the “Z' of S-phase gammaH2AX difference (Z-score)” value is inactive: 0.272.

As for `CC(C)C[C@H](NC(=O)[C@H](Cc1ccccc1)NC(=O)c1cnccn1)B(O)O` [Bortezomib (Velcade)] + C=CCn1c(=O)c2cnc(Nc3ccc(N4CCN(C)CC4)cc3)nc2n1-c1cccc(C(C)(C)O)n1 [MK1775], the “Z' of S-phase gammaH2AX difference (Z-score)” value is inactive: -1.02. For `COc1ccc(CC(C)NCC(O)c2ccc(O)c(NC=O)c2)cc1` (stereo unspecified) [Formoterol] + C=CCn1c(=O)c2cnc(Nc3ccc(N4CCN(C)CC4)cc3)nc2n1-c1cccc(C(C)(C)O)n1 [MK1775] the value was active: 4.45; for `CS(=O)(=O)c1ccc(C(=O)Nc2ccc(Cl)c(-c3ccccn3)c2)c(Cl)c1` [Vismodegib (GDC-0449)] + C=CCn1c(=O)c2cnc(Nc3ccc(N4CCN(C)CC4)cc3)nc2n1-c1cccc(C(C)(C)O)n1 [MK1775], inactive: 0.129. On to `CCCCN1CCC(n2c(=O)[nH]c3ccccc32)CC1` [NS 521 oxalate] + C=CCn1c(=O)c2cnc(Nc3ccc(N4CCN(C)CC4)cc3)nc2n1-c1cccc(C(C)(C)O)n1 [MK1775], for which the “Z' of S-phase gammaH2AX difference (Z-score)” value is inactive: -0.252. For the compound `CC1(C)CCC(c2ccc(Cl)cc2)=C(CN2CCN(c3ccc(C(=O)NS(=O)(=O)c4ccc(N[C@H](CCN5CCOCC5)CSc5ccccc5)c(S(=O)(=O)C(F)(F)F)c4)cc3)CC2)C1` [ABT-263 (Navitoclax)] + C=CCn1c(=O)c2cnc(Nc3ccc(N4CCN(C)CC4)cc3)nc2n1-c1cccc(C(C)(C)O)n1 [MK1775], the “Z' of S-phase gammaH2AX difference (Z-score)” value is inactive: -0.000739.

`CCOC(=O)N1CCC(=C2c3ccc(Cl)cc3CCc3cccnc32)CC1` [Loratadine] + C=CCn1c(=O)c2cnc(Nc3ccc(N4CCN(C)CC4)cc3)nc2n1-c1cccc(C(C)(C)O)n1 [MK1775]: the “Z' of S-phase gammaH2AX difference (Z-score)” value was inactive: 1.48.
